## Primary screen of a compound library

Amino acid sequences for entries named in this document (tags omitted).
UniProt E9BF75, entry or part of it: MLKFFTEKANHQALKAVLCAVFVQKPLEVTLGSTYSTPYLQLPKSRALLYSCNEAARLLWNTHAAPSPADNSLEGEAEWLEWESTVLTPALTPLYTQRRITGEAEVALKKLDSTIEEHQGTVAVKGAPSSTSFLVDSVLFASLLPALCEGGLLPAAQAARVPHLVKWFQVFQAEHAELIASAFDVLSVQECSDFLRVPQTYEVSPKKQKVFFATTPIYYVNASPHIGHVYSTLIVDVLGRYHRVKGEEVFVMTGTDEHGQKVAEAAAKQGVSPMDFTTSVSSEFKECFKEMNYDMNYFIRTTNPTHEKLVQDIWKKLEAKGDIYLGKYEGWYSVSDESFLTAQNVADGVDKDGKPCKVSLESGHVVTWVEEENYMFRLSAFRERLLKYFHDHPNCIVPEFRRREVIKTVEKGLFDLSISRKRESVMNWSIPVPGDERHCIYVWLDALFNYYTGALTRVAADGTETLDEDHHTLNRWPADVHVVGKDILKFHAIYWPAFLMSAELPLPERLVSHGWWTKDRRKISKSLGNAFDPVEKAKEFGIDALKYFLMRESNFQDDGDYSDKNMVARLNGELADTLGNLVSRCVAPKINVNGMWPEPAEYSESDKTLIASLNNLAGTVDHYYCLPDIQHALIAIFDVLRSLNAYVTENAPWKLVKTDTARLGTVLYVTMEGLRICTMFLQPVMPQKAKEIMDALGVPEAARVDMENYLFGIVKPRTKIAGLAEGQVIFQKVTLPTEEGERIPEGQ

Results are percentages, as filed. The controls that fix the scale are not given in the record; negative values are as filed. This is an unselected part of the compounds tested. A dash means the value is not listed here; it may have been measured.

A: 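Primary screen of methionyl-tRNA synthetase; the read-out is not stated. Target: Methionyl-tRNA synthetase (putative), Leishmania donovani (UniProt E9BF75). The test concentration is not given. The values are filed as inhibition. Of about 68,000 compounds tested this way, about 24 (0.035%) reached 50% or more in at least one test.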
B: 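Assay on Mycobacterium tuberculosis, filed only as a heat shock assay from Cornell; the read-out is not stated. The concentration is filed as 10 mM, unlikely as a test dose, so the dose is not known. The record gives no direction; compounds that gave an IC50 in retests scored well above the rest, so higher reads as stronger inhibition. Of about 69,000 compounds tested this way, about 930 (1.4%) reached 50% or more in at least one test.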

- N[C@@H]1CC[C@@H]1NC(=O)c1ccccc1OC(F)(F)C(F)F : A: 9.749%; B: 11.49%
- COc1ccc(C(=O)N(C)Cc2cccc(C#N)c2)c(OC)c1OC : A: 5.714%; B: 3.637%
- O=C(O)C(F)(F)F.[H][C@@]12COC[C@]1(COC)CN(Cc1cc(OC)cc(OC)c1)C2 : B: 3.349%
- Cc1cnn(CC2CN(CC(=O)N(C)c3nccs3)CCO2)c1 (stereo not given) : A: 16.78%; B: 6.945%
- Cc1nn(C)c(N2CCOCC2)c1CNCc1cccnc1 : A: 9.677%; B: -2.101%
- CC(C)(N)c1cn(C2CCN(c3ncccc3Cl)CC2)nn1 : A: 4.982%; B: -28.5%
- CC(C)Cc1ncc2c(n1)CN(C(=O)c1ccc(CN3CCCC3)o1)C2 : A: 22.91%; B: -12.7%
- Cc1cccc(CN2CCc3nnc(CN4CCCCC4)n3CC2)n1 : A: 6.723%
- Cc1ccccc1OCC1CCCN(C(=O)CN(C)C2CCNCC2)C1 (stereo not given) : A: 11.98%; B: -10.01%
- COc1ncccc1C(=O)Nc1nc2c(s1)CN(S(=O)(=O)C1CC1)CC2 : A: 7.389%; B: 7.475%
- CC(C)[C@H]1COC(=O)N1CC(=O)N1CCCN(C(=O)c2ccoc2)CC1 : A: 10.05%; B: 11.83%
- Clc1ccccc1OCCc1cc(C2CCNC2)n[nH]1 (stereo not given) : A: 20.58%
- CCCc1nc(C)c(C(=O)NCCN2CCCCC2)s1 : A: 18.58%; B: 1.082%
- Cc1nc(CN2CCC3(CCN(C(=O)c4ccoc4C)CC3)C2)cs1.O=C(O)C(F)(F)F : B: -27.34%
- Cc1ccc(-c2nnc(C(C)NCCn3cc(C)cn3)o2)cc1 (stereo not given) : A: 5.923%; B: -2.229%
- CNc1cncc(C2CCCN2C(=O)c2ccc3c(c2)CCC3)n1 (stereo not given) : A: 3.529%; B: -34.84%
- O=C(O)C(F)(F)F.[H][C@@]12COC[C@]1(CNS(=O)(=O)C1CC1)CN(c1ncc(F)cn1)C2 : B: -20.42%
- Cc1cc2nc(C3CCCCC3)c(-c3ccnc(NCCO)n3)cn2n1 : A: 8.981%; B: 7.988%
- COc1ccc(-n2cnc(Cl)c2CO)cc1 : A: 20.92%; B: 0.1155%
- Cc1nc(-c2cccc(C(=O)N(C)CC(C)O)c2)cs1 (stereo not given) : A: 10.14%; B: 7.791%
- O=C(c1cnc(O)cn1)N1CCCC1c1nc2cc(F)ccc2[nH]1 (stereo not given) : A: 12.18%; B: -22.41%
- Cc1nc(CN2CCC3(CC2)NC(=O)CC3c2ccncc2)cs1 (stereo not given) : A: 16.35%

The last 2 entries again:

| Compound | A | B |
|---|---|---|
| `O=C(c1cnc(O)cn1)N1CCCC1c1nc2cc(F)ccc2[nH]1` (stereo not given) | 12.18% | -22.41% |
| `Cc1nc(CN2CCC3(CC2)NC(=O)CC3c2ccncc2)cs1` (stereo not given) | 16.35% | - |

Measurements from “University of Dundee, Small-Polar-MMV Screening Library” (2021), ChEMBL document CHEMBL3988442.